Data: patent US20110160146A1, “Conjungation of Small Molecules to Octaarginine Transporters for Overcoming Multi-Drug Resistance” (National Institute of Health (NIH), priority 2008, published 2011)
At least one structure is not confirmed: it was looked up by name or label, or the drawing left a doubt. Non-standard residues stand in square brackets, D forms with d. Residues, ends and D or L forms follow the SMILES beside them. *: point of attachment. Paclitaxel(2'-OCO(CH2)3S) = CC(=O)O[C@H]1C(=O)[C@@]2(C)[C@H]([C@H](OC(=O)c3ccccc3)[C@]3(O)C[C@H](OC(=O)[C@H](OC(=O)CCCS*)[C@@H](NC(=O)c4ccccc4)c4ccccc4)C(C)=C1C3(C)C)[C@]1(OC(C)=O)CO[C@@H]1C[C@@H]2O; X2 = CC(=O)O[C@H]1C(=O)[C@@]2(C)[C@H]([C@H](OC(=O)c3ccccc3)[C@]3(O)C[C@H](OC(=O)[C@H](OC(=O)OCCS*)[C@@H](NC(=O)c4ccccc4)c4ccccc4)C(C)=C1C3(C)C)[C@]1(OC(C)=O)CO[C@@H]1C[C@@H]2O; X1 = CC(=O)O[C@H]1C(=O)[C@]2(C)[C@@H](OC(=O)CCCS*)C[C@H]3OC[C@@]3(OC(C)=O)[C@H]2[C@H](OC(=O)c2ccccc2)[C@]2(O)C[C@H](OC(=O)[C@H](O)[C@@H](NC(=O)c3ccccc3)c3ccccc3)C(C)=C1C2(C)C; X3 = O=C(OCCCS*)Oc1ccc(-c2cn3c(=O)c(Cc4ccccc4)nc-3c(Cc3ccccc3)[nH]2)cc1

What was measured:
MCF-7-pgp = test: Cell cytotoxicity assay (IC50), MCF-7-pgp; details: read-out: IC50 concentration; MCF-7-pgp (Pgp transfected); 20 min incubation, washed, 72 hr drug-free media
Procedure: After 72 hours, the cytotoxicity of the relevant compound was determined by an MTT based assay.
Within the panel of human cancer cells, there were three sets of related sensitive and resistant cell lines, the latter based wholly or in part on Pgp-mediated efflux. These resistant lines were either created through stable transfection of MCF-7 cells with Pgp (MCF-7-Pgp), or by selection through exposure of OVCA429 and OVCA433 cells to taxol (OVCA429T and OVCA433T)^19 or taxotere (OVCA429TxT and OVCA433TxT), creating a complex MDR phenotype including Pgp upregulation.
Cell Lines; SKOV-3 cells were obtained from ATCC; UCI-101 and UCI-107 cell lines were obtained from Drs. P. DiSaia and A. Manetta, University of California; MCF-7 and MCF-7-Pgp were obtained from Dr. D. Piwnica-Worms, Washington University; OVCA429, OVCA433 and the taxane resistant derivatives of these cells (OVCA429T, OVCA429TxT, OVCA433T and OVCA433TxT) were obtained from Dr. B. Sikic, Stanford University. All cells were grown in DMEM with 10% FBS.
Cell Cytotoxicity Assay. The cytotoxicity of relevant compounds was determined by IC50 assay. […] Bioluminescence was determined using an IVIS 50 system (Caliper Life Sciences, Alameda, Calif.). […]

[1] = tested on: panel of human cancer cells; test: Cell cytotoxicity assay, whole panel of cancer cell lines; format: cell-based; details: all resistant cell lines (Pgp / MDR)
OVCA429 cells = test: Cell cycle assay, OVCA429; format: cell-based, human; design: dose or concentration left out as unconfirmed; details: analysis after 24 hr, 7-AAD flow cytometry
Procedure: FIG. 1. Mechanisms of action of octaarginine taxol conjugates. (a) Tubulin polymerization assay.
The percentage of cells in G2/M was recorded. Data from 3 separate experiments were combined.
Statistical significance was determined as p<0.05.

[2] = tested on: UCI-101 tumor cells expressing luciferase; test: Mouse tumor model, UCI-101 intraperitoneal xenograft; format: in vivo, mice; details: for anticancer effect / survival relative to taxol: days 0, 5 and 10
[3] = tested on: OVCA429T cells expressing Renilla luciferase (Pgp efflux); test: Bioluminescence of Renilla luciferase expressing OVCA429 and OVCA429T cells (Pgp efflux); format: cell-based, human; details: 5 μM cyclosporine A
[4] = UCI-101, 5 mg/kg or equimolar, intraperitoneal
[5] = UCI-101, 10 mg/kg or equimolar, intraperitoneal

CC(=O)N[C@H](CSSCCOC(=O)O[C@@H](C(=O)O[C@H]1C[C@@]2(O)[C@@H](OC(=O)c3ccccc3)[C@@H]3[C@]4(OC(C)=O)CO[C@@H]4C[C@H](O)[C@@]3(C)C(=O)[C@H](OC(C)=O)C(=C1C)C2(C)C)[C@@H](NC(=O)c1ccccc1)c1ccccc1)C(=O)N[C@H](CCCNC(=N)N)C(=O)N[C@H](CCCNC(=N)N)C(=O)N[C@H](CCCNC(=N)N)C(=O)N[C@H](CCCNC(=N)N)C(=O)N[C@H](CCCNC(=N)N)C(=O)N[C@H](CCCNC(=N)N)C(=O)N[C@H](CCCNC(=N)N)C(=O)N[C@H](CCCNC(=N)N)C(N)=O [4a, Taxol C2′ octaarginine conjugate] (Ac-[dC](X2)[dR][dR][dR][dR][dR][dR][dR][dR]-NH2)
IC50 (MCF-7-pgp): 230 nM

CC(=O)N[C@H](CSSCCCC(=O)O[C@@H](C(=O)O[C@H]1C[C@@]2(O)[C@@H](OC(=O)c3ccccc3)[C@@H]3[C@]4(OC(C)=O)CO[C@@H]4C[C@H](O)[C@@]3(C)C(=O)[C@H](OC(C)=O)C(=C1C)C2(C)C)[C@@H](NC(=O)c1ccccc1)c1ccccc1)C(=O)N[C@H](CCCNC(=N)N)C(=O)N[C@H](CCCNC(=N)N)C(=O)N[C@H](CCCNC(=N)N)C(=O)N[C@H](CCCNC(=N)N)C(=O)N[C@H](CCCNC(=N)N)C(=O)N[C@H](CCCNC(=N)N)C(=O)N[C@H](CCCNC(=N)N)C(=O)N[C@H](CCCNC(=N)N)C(N)=O [2a, Taxol C2′ ester octaarginine conjugate] (Ac-[dC](Paclitaxel(2'-OCO(CH2)3S))[dR][dR][dR][dR][dR][dR][dR][dR]-NH2)
effectiveness in resistant cells relative to taxol [1]: more effective than taxol itself
percentage of cells in the G2/M phase relative to taxol (OVCA429 cells): significantly greater percentage
anticancer effect / survival relative to taxol [2, 4]: enhanced anticancer effects over taxol alone
complete responses ([2]; UCI-101, 10 mg/kg dose, intraperitoneal): 60%
anticancer effect / survival relative to taxol [2, 5]: enhanced anticancer effects over taxol alone

CC(=O)N[C@H](CSSCCCOC(=O)Oc1ccc(-c2cn3c(=O)c(Cc4ccccc4)nc-3c(Cc3ccccc3)[nH]2)cc1)C(=O)N[C@H](CCCNC(=N)N)C(=O)N[C@H](CCCNC(=N)N)C(=O)N[C@H](CCCNC(=N)N)C(=O)N[C@H](CCCNC(=N)N)C(=O)N[C@H](CCCNC(=N)N)C(=O)N[C@H](CCCNC(=N)N)C(=O)N[C@H](CCCNC(=N)N)C(=O)N[C@H](CCCNC(=N)N)C(N)=O [compound 6, Coelenterazine octaarginine conjugate] (Ac-[dC](X3)[dR][dR][dR][dR][dR][dR][dR][dR]-NH2)
effect of preincubation with Pgp inhibitor cyclosporine A on signal in OVCA429T cells [3]: little effect

CC(=O)N[C@H](CSSCCCC(=O)O[C@H]1C[C@H]2OC[C@@]2(OC(C)=O)[C@H]2[C@H](OC(=O)c3ccccc3)[C@]3(O)C[C@H](OC(=O)[C@H](O)[C@@H](NC(=O)c4ccccc4)c4ccccc4)C(C)=C([C@@H](OC(C)=O)C(=O)[C@]12C)C3(C)C)C(=O)N[C@H](CCCNC(=N)N)C(=O)N[C@H](CCCNC(=N)N)C(=O)N[C@H](CCCNC(=N)N)C(=O)N[C@H](CCCNC(=N)N)C(=O)N[C@H](CCCNC(=N)N)C(=O)N[C@H](CCCNC(=N)N)C(=O)N[C@H](CCCNC(=N)N)C(=O)N[C@H](CCCNC(=N)N)C(N)=O [3a, Taxol C7 ester octaarginine conjugate] (Ac-[dC](X1)[dR][dR][dR][dR][dR][dR][dR][dR]-NH2)
anticancer effect / survival relative to taxol [2, 4]: significantly greater survival than taxol
anticancer effect / survival relative to taxol [2, 5]: significantly greater survival than taxol
effectiveness against taxol-sensitive tumors relative to taxol ([2]; taxol-sensitive tumors, model not given): only as effective as taxol
